# Measurements reported in PubChem BioAssay AID2417 (National Center for Advancing Translational Sciences (NCATS), 2010).
# The whole screen tested about 140,000 compounds, of which about 4,300 (3.1%) were called active. The inconclusive results got no clear call from the source; some entries with a clear call stand among them for comparison.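 Rule for the calls: active = readout at or below -70, meaning at least 70% loss of cells showing the perinucleolar compartment, a nuclear body marking cancer cells; inconclusive = readout between -30 and a set limit; inactive = the rest.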
# Test: High Content Assay for Compounds that inhibit the Assembly of the Perinucleolar Compartment;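 note: plate controls were DMSO wells for no effect and camptothecin positive control wells for full effect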
# Conditions: PC3M PTB-GFP, PNC prevalence imaging, 16 h; at 10 µM; hits give low values
# Method in brief: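 Read-out is percentage of cells bearing a perinucleolar compartment, from automated 20x imaging of fixed, Hoechst-stained PC3M PTB-GFP cells. Cells were seeded 4 h, then exposed 16 h to compound (23 nl of library stock) in duplicate plates.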
row,SMILES,"activity change (PNC), negative = inhibition"
1,O=C(CCc1ccccc1)Nc1ccc(F)cc1F,inactive: -26.2%
2,CCc1ccc2nc(-c3cccc(C)c3)nc(SCC(=O)NCC3CCCO3)c2c1 (stereo not drawn),inactive: 39.9%
3,CC12CCC(C(=O)N3CCCCC3)(CC1=O)C2(C)C (stereo not drawn),inconclusive: -43.5%
4,CCN(CC)CC(=O)c1c[nH]c2ccccc12,inconclusive: -60.3%
5,COc1ccccc1N(C)S(=O)(=O)c1ccc(C(=O)N(CC(N)=O)C(C)C)cc1,inconclusive: -52.8%
6,COc1ccc(C(=O)CSc2nn3c(=O)c(C(C)(C)C)nnc3s2)cc1,inconclusive: -45.7%
7,COc1cccc(C(=O)OCC(=O)Nc2cc(C)c(C)cc2[N+](=O)[O-])c1,inconclusive: -75%
8,Cc1nc(NC(=O)C23CC4CC(CC(C4)C2)C3)sc1Cc1ccc2c(c1)OCO2,inconclusive: -50.8%
9,Cc1cccc(OCCn2c(S(=O)(=O)O)nc3ccccc32)c1,inactive: -3.38%
10,FC(F)(F)c1cccc(N2CCN(C(=S)NC3CCCC3)CC2)c1,inconclusive: -37.8%
11,Cc1onc(-c2ccccc2Cl)c1C(=O)NCc1nc(-c2ccccc2)no1,inconclusive: -38%
12,O=[N+]([O-])C1=C(Nc2cccc3ccccc23)CS(=O)(=O)C1,inactive: -11%
13,Cc1ccc(S(=O)(=O)N(C)CC(=O)NCc2ccncc2)cc1,inconclusive: -48.4%
14,CCOC(=O)c1cc(-c2ccccc2)nn1-c1ccccn1,inconclusive: -60.1%
15,COc1cccc(C(=O)NC2CCN(CC(=O)NCc3ccccc3OC)CC2)c1,inactive: 1.38%
16,CCCOc1ccccc1Cn1c(=O)oc2ccc(C)cc21,inconclusive: -64.1%
17,Cc1cc(NC(=O)c2cnn3cccnc23)no1,inconclusive: -33.7%
18,Cc1ccsc1/C=C1/SC(=O)N(CC(=O)N2CCOCC2)C1=O,inactive: -10.8%
19,CCOc1ccccc1NC(=O)C(OC(=O)c1cc(C)oc1C)c1ccccc1 (stereo not drawn),inconclusive: -34.8%
20,CN(C)C(=O)/C(=C/c1cn(-c2ccccc2)nc1-c1cccc([N+](=O)[O-])c1)NC(=O)c1ccccc1,inactive: 4.85%
21,Cc1cc(NC(=O)c2ccc3c(c2)C(=O)N(C2CCCCC2)C3=O)no1,inconclusive: -56%
22,O=C(NC1CCCCC1)N1CCCC(c2nc3ccccc3[nH]2)C1 (stereo not drawn),inconclusive: -46.3%

# Compounds above containing an aryl thioether with sulfur outside any ring:
row,SMILES,"activity change (PNC), negative = inhibition"
2,CCc1ccc2nc(-c3cccc(C)c3)nc(SCC(=O)NCC3CCCO3)c2c1 (stereo not drawn),inactive: 39.9%
6,COc1ccc(C(=O)CSc2nn3c(=O)c(C(C)(C)C)nnc3s2)cc1,inconclusive: -45.7%

# Carrying on:

row,SMILES,"activity change (PNC), negative = inhibition"
1,CCCNC(=O)CS(=O)(=O)Cc1nc(-c2ccccc2C)oc1C,inconclusive: -30.1%
2,Cn1nnc(NC(=O)c2ccccc2)n1,active: -95.3%
3,CCOC(=O)[C@H]1NN=C(C(=O)OC)[C@@H]1c1ccccc1,inconclusive: -53.1%
4,Cc1cc(C(=O)CSc2nnnn2-c2ccccc2)c(C)n1CC1CCCO1 (stereo not drawn),inactive: -12.8%
5,COc1ccc(NS(=O)(=O)c2ccc(O)c(NC(=O)c3cc4c(C)nn(-c5ccc(F)cc5)c4s3)c2)cc1,inconclusive: -63.8%
6,CCCc1cc(=O)[nH]c(SCC(=O)NC)n1,inactive: 30.7%
7,Cc1cc(S(=O)(=O)Nc2c(C)ccc3nsnc23)ccc1F,inconclusive: -36.6%
8,COc1cc(NC(=O)CCCSc2nc(-c3ccco3)cc(C(F)(F)F)n2)cc(OC)c1OC,inconclusive: -31.4%
9,Cc1ccc(-n2nnnc2SCC(=O)Nc2sccc2C#N)cc1,inactive: 30%
10,CCOC(=O)c1ccc(N=C2C(=S)N(c3ccc(C(=O)OCC)cc3)C(=N)N2/N=C/c2ccccc2)cc1,active: -86.4%
11,O=C(COC(=O)c1cc(Cl)nc2ccccc12)c1ccc(Cl)cc1,inconclusive: -31.7%
12,COC(=O)C1CSC(C(=O)OC)N1C(=O)Nc1ccc(Cl)c(Cl)c1 (stereo not drawn),inconclusive: -36.5%
13,O=C(Nc1nccs1)c1cc(N2CCOCC2)nc2ccccc12,inconclusive: -44.8%
14,O=C(Cc1ccccc1)Nc1nc(-c2cccc([N+](=O)[O-])c2)cs1,active: -103%
15,Cc1ccc(C(C(=O)NC2CCCC2)N(Cc2ccco2)C(=O)CCC(=O)Nc2cc(C)on2)cc1 (stereo not drawn),inconclusive: -34.3%
16,N#Cc1c(NC(=O)c2cc([N+](=O)[O-])ccc2N2CCOCC2)sc2c1CCCC2,inactive: 47.8%
17,Cc1cc(C)c2cc3c(N)c(C(=O)Nc4c(C)[nH]c(=O)[nH]c4=O)sc3nc2c1,inactive: -0.185%
18,COC(=O)CN1C(=S)N(Cc2ccccc2)C(=O)C1CC(=O)Nc1ccc(OC)cc1 (stereo not drawn),inconclusive: -30.5%
19,CC12CCC(C(=O)NCc3ccc4c(c3)OCO4)(CC1=O)C2(C)C (stereo not drawn),inconclusive: -36%
20,CN1C(=O)N(C)C2(c3ccccc3)N(C)C(=O)NC12c1ccccc1 (stereo not drawn),inconclusive: -40.4%
21,O=C1CC(N2CCC(c3nc4ccccc4o3)CC2)C(=O)N1c1cc(Cl)cc(Cl)c1 (stereo not drawn),inactive: -9.8%
22,C=CCc1ccccc1OCC(O)CN1CCN(c2ccc(OC)cc2)CC1 (stereo not drawn),inconclusive: -63%

# Of the compounds above, four have an NH in an aromatic ring.
row,SMILES,"activity change (PNC), negative = inhibition"
4,CCN(CC)CC(=O)c1c[nH]c2ccccc12,inconclusive: -60.3%
22,O=C(NC1CCCCC1)N1CCCC(c2nc3ccccc3[nH]2)C1 (stereo not drawn),inconclusive: -46.3%
6,CCCc1cc(=O)[nH]c(SCC(=O)NC)n1,inactive: 30.7%
17,Cc1cc(C)c2cc3c(N)c(C(=O)Nc4c(C)[nH]c(=O)[nH]c4=O)sc3nc2c1,inactive: -0.185%

# Next part:

row,SMILES,"activity change (PNC), negative = inhibition"
1,O=C(c1coc2ccc(O)cc12)C1CC1,inconclusive: -31.7%
2,COC(=O)CN1C(=O)CC(C)(C)Sc2ccccc21,inactive: 35.7%
3,CCCc1cc(=O)oc2cc(C)cc(OC(=O)c3ccco3)c12,inconclusive: -49.2%
4,CCN(CC)S(=O)(=O)c1cccc(C(=O)N/N=C/c2ccc(OC)c(O)c2)c1,inactive: -18.3%
5,O=C(NCc1cccnc1)c1ccc(Cl)c(Cl)c1,inconclusive: -57.8%
6,C=CCNC(=S)NNC(=O)c1ccc(OCCC)cc1,inconclusive: -43.2%
7,CCCCn1c(-c2csc3c2CCCC3)n[nH]c1=S,inactive: -4.43%
8,CC(C)(C)n1nnnc1CN1CCSCC1,inactive: 11.5%
9,Cn1c(=O)[nH]c(=O)c2c1nc(CN1CCN(c3cccc(Cl)c3)CC1)n2CCc1ccccc1,inconclusive: -30.8%
10,CCc1ccc(NC(=O)/C(C#N)=C/c2cc3ccc(C)cc3nc2N2CCOCC2)cc1,inactive: 10.7%
11,CCN(CC)C(=O)Oc1ccc2c(=O)c(-c3ccccc3)coc2c1,inconclusive: -51%
12,NC(N)=NS(=O)(=O)c1ccc(NC(=S)NC(=O)c2sc3ccccc3c2Cl)cc1,inconclusive: -50.3%
13,CCOC(=O)N1CCN(C(=O)c2cc3cc(Br)ccc3oc2=O)CC1,inactive: -6.42%
14,CCOC(=O)CSc1nc(-c2ccc(OC)cc2)ns1,inconclusive: -44.8%
15,CCOC(=O)c1ccc(N2Cc3cc(C)c(C)cc3C2)cc1O,inactive: 18.5%
16,CCSc1oc(-c2cccs2)nc1S(=O)(=O)c1ccccc1,inactive: -22.9%
17,Cn1c(=O)c2c(nc(Oc3ccc4c(c3)OCO4)n2Cc2ccc(Cl)cc2)n(C)c1=O,inconclusive: -36%
18,CCN1C(=C2C(=O)c3ccccc3C2=O)C=Cc2ccccc21,inactive: -9.53%
19,Cc1nc2ccc(S(=O)(=O)NCC(=O)N3CCCCC3)cc2s1,inconclusive: -40.2%
20,CC1(C)C(c2ccccc2)=[N+]([O-])C2(CCCCC2=O)N1O (stereo not drawn),inconclusive: -72.9%
21,O=C(NC1=NCCS1)c1cc(-c2ccc(F)cc2)nc2ccccc12,inconclusive: -49.1%
22,CNC(=O)Nc1cccc(NC(=O)NC)n1,inactive: -9.84%

row,SMILES,"activity change (PNC), negative = inhibition"
1,Nc1ccc(Cl)c(NC(=O)c2cccs2)c1,inconclusive: -42.4%
2,CCCCOC(=O)c1[nH]c(C)c(C(=O)OC)c1C,active: -88.2%
3,CCOn1c(=O)c(-c2cccc([N+](=O)[O-])c2)[n+]([O-])c2ccccc21,inconclusive: -77.7%
4,O=C(OCCN1CCOCC1)C(c1ccccc1)c1ccccc1,inconclusive: -36.5%
5,COC(=O)c1cccc(S(=O)(=O)N2CCC(NC(=O)Nc3cccc(F)c3)CC2)c1,active: -98.2%
6,CCC(C)C(NC(=O)c1ccccc1NC(=O)c1ccco1)C(=O)NNC(=O)c1ccc(OC)cc1 (stereo not drawn),inconclusive: -66.1%
7,CCc1ccc2oc(=O)cc(CN3CCCCC3C)c2c1 (stereo not drawn),inconclusive: -52.6%
8,CC(=O)c1cc(-c2ccccc2)n(CC(=O)N2CCC(N3CCCCC3)CC2)c1C,inconclusive: -59.3%
9,COc1ccc2c(c1)c(CC(=O)Nc1ccccc1OC)c(C)n2C(=O)c1ccc(Cl)cc1,inconclusive: -53%
10,COC(=O)COc1ccc(S(=O)(=O)NCc2cccnc2)cc1C,inconclusive: -43.8%
11,CC(C)(C)OC(=O)NCC(=O)Oc1cc2oc(=O)cc(-c3ccccc3)c2cc1Cl,inconclusive: -36.6%
12,COc1cccc(C2Nc3cc(Cl)c(S(N)(=O)=O)cc3S(=O)(=O)N2)c1 (stereo not drawn),inconclusive: -34.5%
13,CS(=O)(=O)N(CC(=O)NC1CC1)c1cccc(F)c1,inconclusive: -34.9%
14,O=C(N/N=C/c1ccncc1)c1cc([N+](=O)[O-])cc([N+](=O)[O-])c1O,inconclusive: -32.7%
15,COC(=O)c1ccc(CSc2nc3ccc(S(=O)(=O)N4CCOCC4)cc3[nH]2)cc1,inconclusive: -42.1%
16,CCC(c1nnnn1CCOC)N(Cc1cc2c(C)cc(C)cc2[nH]c1=O)CC1CCCO1 (stereo not drawn),inactive: 33.6%
17,CC1=C(C(=O)Nc2ccc(Cl)cc2)C(c2ccncc2)C(C#N)=C(SCC(N)=O)N1 (stereo not drawn),inactive: 17.9%
18,CCCOc1ccc(/C=C/C(=O)Nc2ccc([N+](=O)[O-])cc2)cc1,inconclusive: -39.6%
19,N#CC1=C2SCN(Cc3ccco3)CN2C(=O)CC1c1c(F)cccc1Cl (stereo not drawn),inactive: 18%
20,COc1c(F)c(F)c(C(=O)Nc2ccccc2N2CCN(C(C)=O)CC2)c(F)c1F,inconclusive: -50.1%
21,COc1ccc(C(=O)c2sc3nc(C)cc(-c4cccs4)c3c2N)cc1,inconclusive: -34%
22,CCN(CC)c1ccc(/C=N\NC(N)=O)cc1,inactive: -21.6%
